Reference: PubChem BioAssay AID493014 (National Center for Advancing Translational Sciences (NCATS), 2011)
The campaign covered roughly 340,000 compounds. About 170 (0.05%) were called active. Inconclusive results, whose numbers are uncertain, are shown with a selection of clear calls. Calls come from the whole dose curve; as a rule, active = well fitted inhibition curve with a large enough effect in the signal ratio, with a control signal flat (not every such curve was filed as active); inconclusive = small, poorly fitted or top-dose-only effect, or effect the other way, or a change in a side signal; inactive = flat fitted curve, though single readings scatter; the % refers to the signal ratio. Potencies beside an inconclusive call are fits to weak or partial responses and may not hold up.

Test: qHTS Assay to Find Inhibitors of Chronic Active B-Cell Receptor Signaling;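 for activity change, negative = inhibition: plate controls were basal doxycycline-induced cells for no effect and cells given 10 µM MG132 for full effect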
Conditions: ABC-DLBCL IkBa-CBG/CBR reporter, luminescence ratio (green luciferase fused to IkBa over red control in TMD8 lymphoma cells), 4 h; activity change, negative = inhibition: at 46.1 µM (top of the series)
Method in brief: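 Cell line TMD8 (human ABC DLBCL), stably expressing tet-inducible CBG68-IkBa fusion and CBR; IMDM/0.5% FBS; cpd up to 46 uM; dox induction, 4 h, 37C/5% CO2; dual luminescence; green/red ratio; MG132 control.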
Potency is the fitted concentration of half-maximal effect.

SMILES | activity change, negative = inhibition | Potency
N#Cc1c(NC(=S)NC(=O)c2ccccc2)sc2c1CCCC2 | inconclusive: 8.28% | –
Cc1oc(-c2ccc(Cl)cc2)nc1CN1CCC(C(=O)NCc2ccco2)CC1 | inactive | –
O=C(NNC(=O)c1ccccc1O)c1ccc(S(=O)(=O)Nc2ccccc2)cc1 | inactive | –
CSc1ccc(CN(C)C(=O)c2ccc(S(=O)(=O)Nc3ccccc3)cc2)cc1 | inactive | –
Cc1cccc(-c2noc(CCCC(=O)NC3CCCCC3)n2)c1 | – | inconclusive: 3.98 µM [rising, full curve]
COc1ccc(NC(=O)CC(c2ccc(F)cc2)c2ccc(OC)cc2)cc1 (stereo unspecified) | inactive | –
COc1ccc(NC(=O)COC(=O)c2ccc(S(=O)(=O)N3CCCC3)cc2)cc1OC | inconclusive: 0.321% | –
CC1(C)Cc2c(C#N)c(SCC(=O)c3ccccc3)nc(N3CCOCC3)c2CS1 | inactive | –
O=[N+]([O-])c1cccc(/C([O-])=C(/C(=S)Nc2cccc3ccccc23)[n+]2ccccc2)c1 | inconclusive: -16.6% | –
CN(C)CCN(C(=O)/C=C/c1cccs1)c1nc2c(F)cc(F)cc2s1 | inconclusive: -12.1% | –
CC(C)(C)c1ccc(C(=O)Nc2ccc(CN3CCS(=O)(=O)CC3)cc2)cc1 | inactive | –
CC1CC(C(F)(F)C(F)(F)F)n2nc(C(=O)O)cc2N1 (stereo unspecified) | inactive | –
O=C(N/C(=C\c1ccc(Br)cc1)C(=O)N1CCOCC1)c1ccco1 | inactive | –
O=c1[nH]c2ccccc2c2ccccc12 | inactive | –
COc1ccc(C)cc1NC(=O)Nc1ccncc1 | inconclusive: -11.5% | –
CCNC(=O)/C(C#N)=C/c1c(N2CCN(C)CC2)nc2c(C)cccn2c1=O | inconclusive: 0.796% | –
CCS(=O)(=O)c1ccc(C(=O)Nc2ccccc2)c(Cl)c1Cl | inconclusive: 4.37% | –
O=C1CN(C(=O)c2cc(Br)c(Br)s2)c2ccccc2N1 | – | inconclusive: 14.6 µM [falling, single point]
C[C@H]1O[C@@H](O[C@H]2CC[C@@]3(C)C(CC[C@]4(C)C3C=C[C@]35OC[C@@]6(CCC(C)(C)C[C@H]63)[C@@H](O)C[C@]54C)[C@]2(C)CO)[C@H](O)[C@@H](O[C@@H]2O[C@H](CO)[C@@H](O)[C@H](O)[C@H]2O)[C@H]1O (stereo partly specified) | inconclusive: -1.42% | –
O=C(c1cccs1)C1C(c2ccc(Br)cc2)NC(=S)NC1(O)C(F)(F)F (stereo unspecified) | inconclusive: -6.86% | –
CCOc1ccc(/C=C/c2c([N+](=O)[O-])c(=O)n(C)c(=O)n2C)cc1 | inconclusive: -8.81% | –

Arranged by heavy-atom count (smallest number first): part of the list above
SMILES | activity change, negative = inhibition | Potency
O=C1CN(C(=O)c2cc(Br)c(Br)s2)c2ccccc2N1 | – | inconclusive: 14.6 µM [falling, single point]
O=C(N/C(=C\c1ccc(Br)cc1)C(=O)N1CCOCC1)c1ccco1 | inactive | –
O=[N+]([O-])c1cccc(/C([O-])=C(/C(=S)Nc2cccc3ccccc23)[n+]2ccccc2)c1 | inconclusive: -16.6% | –

(more compounds)

SMILES | activity change, negative = inhibition | Potency
CC1CC(C)CN(c2ncc3c(n2)CC(c2ccccc2Cl)CC3=O)C1 (stereo unspecified) | inconclusive: 5.98% | –
COc1ccc(-n2c(SCC(=O)Nc3cc(C(=O)O)ccc3C)nc3ccccc3c2=O)cc1Cl | inconclusive: 2.04% | –
Cc1cc(C)cc(NC(=O)Cc2ccc(S(=O)(=O)N3CCCC3)s2)c1 | inconclusive: -0.71% | –
N#CCCN1CCN(S(=O)(=O)c2ccc(S(=O)(=O)NCc3ccccc3)cc2)CC1 | inconclusive: 11.1% | –
O=C(Nc1cccc(Cl)c1)Nc1ccccc1C(=O)O | – | inconclusive: 2.82 µM [falling, partial curve, poor fit]
CC1CCC(NC(=O)Cn2cc3c(n2)CCCC3)CC1 (stereo unspecified) | inconclusive: -1.29% | –
COc1ccc([N+](=O)[O-])cc1NC(=O)COC(=O)c1ccccn1 | inconclusive: 6.42% | –
CC1=CC(c2ccc(Cl)cc2)n2nc(N3C(=O)CCC3=O)nc2N1 (stereo unspecified) | inactive | –
COc1ccc(COc2cc(-c3cccc(OC)c3)nc3ccc(NC(=O)c4cccnc4)cc23)cc1 | inactive | –
O=C(N/N=C/c1ccccc1F)c1ccccc1OCc1ccccc1 | – | inconclusive: 3.98 µM [falling, partial curve, poor fit]
O=C(CSc1nc2ccccc2o1)NCc1ccc2c(c1)OCO2 | inconclusive: -17.5% | –
Fc1ccc(-c2csc(Nc3ccccn3)n2)cc1 | – | inconclusive: 35.5 µM [rising, single point]
O=c1nc(SCc2c(F)cccc2Cl)nc(-c2ccc(Cl)cc2)[nH]1 | inconclusive: 5.67% | –
CCCSC(=S)c1c(C)[nH]n(-c2ccccc2)c1=O | inconclusive: 8.57% | –
Cc1cc(C)n2[nH]c(=O)c(N=Nc3ccc(S(N)(=O)=O)cc3)c2n1 | inconclusive: -20.3% | –
Cc1c(CC(=O)O)c(=O)oc2c(C)c3occ(-c4ccc(F)cc4)c3cc12 | inconclusive: 6.62% | –
CCOc1ccc(NC(=O)/C(=C\c2ccc(OC(C)=O)c(OC)c2)NC(C)=O)cc1 | inconclusive: -6.61% | –
O=C(Nc1cccnc1)C1CCCN(S(=O)(=O)c2cccc3nsnc23)C1 (stereo unspecified) | – | inconclusive: 14.6 µM [rising, single point]
COc1ccc(-n2ncc3c(NCCCn4ccnc4)ncnc32)cc1 | inconclusive: 6.09% | –
O=C(/C(=C/c1ccc(Cl)cc1)c1nc2ccccc2[nH]1)c1cccs1 | – | inconclusive: 6.51 µM [rising, single point]
